# Data as given in PubChem BioAssay AID547 (Emory University Molecular Libraries Screening Center, 2006).
# This list holds what a sample rich in hits left over. Activity calls are given as the source filed them. The rule behind the calls is not given here.
# Biological target: Chaperone protein DnaK (Escherichia coli (strain K12)) (UniProt P0A6Y8)
# Experiment: blockers of bacterial DnaK function – luminescence, E. coli K12, primary screen (AID 547);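 note: tested at 10 µM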
# Settings: DnaK chaperone assay, luminescence read-out; active compounds read low
row,SMILES,luminescence
1,CN1C2CCC1CC(OC(=O)C(O)c1ccccc1)C2 (stereo unspecified),inactive: 3e+06 cps
